Percent effect of library compounds

By UniProt entry, the sequences of proteins in these tests, tags left out. Residues count along the entry.
UniProt I6X8D2, whole entry: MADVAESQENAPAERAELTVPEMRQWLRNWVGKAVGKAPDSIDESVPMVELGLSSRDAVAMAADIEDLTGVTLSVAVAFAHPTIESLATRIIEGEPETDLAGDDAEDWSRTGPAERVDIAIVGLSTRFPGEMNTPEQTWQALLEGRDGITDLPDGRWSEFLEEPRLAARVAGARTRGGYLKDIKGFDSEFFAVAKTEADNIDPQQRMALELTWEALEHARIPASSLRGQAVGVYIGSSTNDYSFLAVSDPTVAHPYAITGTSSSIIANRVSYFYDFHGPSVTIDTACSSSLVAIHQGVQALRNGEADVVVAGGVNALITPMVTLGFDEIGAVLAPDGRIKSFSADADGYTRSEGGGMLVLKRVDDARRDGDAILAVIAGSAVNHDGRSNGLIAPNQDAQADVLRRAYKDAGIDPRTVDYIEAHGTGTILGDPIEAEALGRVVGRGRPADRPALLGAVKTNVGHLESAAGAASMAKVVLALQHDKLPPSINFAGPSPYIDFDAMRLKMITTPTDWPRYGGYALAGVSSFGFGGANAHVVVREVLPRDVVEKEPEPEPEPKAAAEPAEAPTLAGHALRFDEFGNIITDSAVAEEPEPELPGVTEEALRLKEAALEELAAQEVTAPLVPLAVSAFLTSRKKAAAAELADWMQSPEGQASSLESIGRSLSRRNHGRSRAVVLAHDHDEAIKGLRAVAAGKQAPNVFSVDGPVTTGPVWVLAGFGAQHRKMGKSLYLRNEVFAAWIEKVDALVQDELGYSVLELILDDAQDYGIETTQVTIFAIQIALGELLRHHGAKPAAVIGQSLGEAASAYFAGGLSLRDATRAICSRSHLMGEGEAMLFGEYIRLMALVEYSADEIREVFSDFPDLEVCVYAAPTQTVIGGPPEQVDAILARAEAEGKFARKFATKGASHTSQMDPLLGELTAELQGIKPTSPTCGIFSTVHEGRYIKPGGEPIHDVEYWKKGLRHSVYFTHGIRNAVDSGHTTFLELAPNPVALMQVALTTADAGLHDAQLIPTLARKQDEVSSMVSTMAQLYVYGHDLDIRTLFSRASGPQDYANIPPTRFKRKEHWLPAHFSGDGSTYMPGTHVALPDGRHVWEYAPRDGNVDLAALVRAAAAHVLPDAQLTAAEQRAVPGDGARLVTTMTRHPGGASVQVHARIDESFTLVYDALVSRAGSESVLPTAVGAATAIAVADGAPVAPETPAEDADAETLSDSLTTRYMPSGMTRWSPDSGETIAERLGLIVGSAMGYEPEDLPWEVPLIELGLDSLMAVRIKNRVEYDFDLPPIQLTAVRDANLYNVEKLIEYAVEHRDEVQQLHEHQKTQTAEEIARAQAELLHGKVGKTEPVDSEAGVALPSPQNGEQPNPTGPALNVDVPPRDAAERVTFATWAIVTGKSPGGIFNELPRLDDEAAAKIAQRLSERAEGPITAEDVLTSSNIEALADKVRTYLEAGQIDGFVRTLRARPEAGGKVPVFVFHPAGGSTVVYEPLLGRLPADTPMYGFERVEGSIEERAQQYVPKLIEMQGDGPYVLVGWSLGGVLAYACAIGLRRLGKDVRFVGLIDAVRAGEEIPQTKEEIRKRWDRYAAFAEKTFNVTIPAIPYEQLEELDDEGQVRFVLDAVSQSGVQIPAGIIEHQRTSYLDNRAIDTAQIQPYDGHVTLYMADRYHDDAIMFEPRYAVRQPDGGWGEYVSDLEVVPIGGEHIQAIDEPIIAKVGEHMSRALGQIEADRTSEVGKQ
UniProt P9WNZ1, whole entry: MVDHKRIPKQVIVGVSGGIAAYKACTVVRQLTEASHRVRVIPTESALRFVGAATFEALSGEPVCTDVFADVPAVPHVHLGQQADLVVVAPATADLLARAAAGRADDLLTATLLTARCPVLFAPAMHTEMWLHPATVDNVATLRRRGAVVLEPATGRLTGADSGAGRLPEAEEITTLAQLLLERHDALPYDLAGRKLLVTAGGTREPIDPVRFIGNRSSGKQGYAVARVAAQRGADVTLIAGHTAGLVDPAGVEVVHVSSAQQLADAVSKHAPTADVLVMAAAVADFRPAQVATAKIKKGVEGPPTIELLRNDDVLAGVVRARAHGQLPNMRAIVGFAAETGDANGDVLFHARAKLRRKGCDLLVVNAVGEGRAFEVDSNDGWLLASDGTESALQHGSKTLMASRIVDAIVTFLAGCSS
UniProt P9WFT3, whole entry: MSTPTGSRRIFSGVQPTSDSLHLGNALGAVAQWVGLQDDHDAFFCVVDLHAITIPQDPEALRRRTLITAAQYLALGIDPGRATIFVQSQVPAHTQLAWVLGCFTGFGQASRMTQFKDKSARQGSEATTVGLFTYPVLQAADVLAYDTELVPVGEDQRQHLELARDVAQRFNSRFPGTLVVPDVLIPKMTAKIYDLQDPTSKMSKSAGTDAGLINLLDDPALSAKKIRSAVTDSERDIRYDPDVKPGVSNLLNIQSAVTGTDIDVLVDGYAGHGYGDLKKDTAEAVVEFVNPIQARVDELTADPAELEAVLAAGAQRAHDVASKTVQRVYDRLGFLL
UniProt A4I591, 1-473: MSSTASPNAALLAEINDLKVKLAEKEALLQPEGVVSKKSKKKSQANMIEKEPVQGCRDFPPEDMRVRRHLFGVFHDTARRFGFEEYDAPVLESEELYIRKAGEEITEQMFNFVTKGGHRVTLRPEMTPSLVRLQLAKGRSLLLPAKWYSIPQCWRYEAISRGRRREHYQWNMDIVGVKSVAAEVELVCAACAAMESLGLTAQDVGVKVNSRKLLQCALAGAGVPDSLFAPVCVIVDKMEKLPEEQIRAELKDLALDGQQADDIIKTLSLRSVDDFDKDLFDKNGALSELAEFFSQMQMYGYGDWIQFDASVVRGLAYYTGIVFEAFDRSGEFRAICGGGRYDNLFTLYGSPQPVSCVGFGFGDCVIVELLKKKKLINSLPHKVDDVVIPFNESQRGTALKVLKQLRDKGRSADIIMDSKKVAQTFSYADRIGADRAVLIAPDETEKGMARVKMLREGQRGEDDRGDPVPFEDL
UniProt Q4DA54, 1-478: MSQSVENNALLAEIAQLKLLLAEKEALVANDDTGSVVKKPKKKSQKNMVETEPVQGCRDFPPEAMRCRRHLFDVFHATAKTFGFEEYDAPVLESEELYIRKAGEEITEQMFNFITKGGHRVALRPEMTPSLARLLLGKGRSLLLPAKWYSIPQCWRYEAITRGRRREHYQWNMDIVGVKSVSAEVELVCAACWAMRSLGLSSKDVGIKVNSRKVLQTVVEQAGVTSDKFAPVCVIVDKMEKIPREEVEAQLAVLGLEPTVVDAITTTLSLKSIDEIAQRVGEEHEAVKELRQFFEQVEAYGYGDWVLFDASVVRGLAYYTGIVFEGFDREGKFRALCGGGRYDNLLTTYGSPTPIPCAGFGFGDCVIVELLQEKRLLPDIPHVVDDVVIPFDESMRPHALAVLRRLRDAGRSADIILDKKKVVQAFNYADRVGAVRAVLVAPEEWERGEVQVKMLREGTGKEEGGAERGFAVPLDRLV

Pks13 thioesterase: 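Polyketide synthase Pks13, Mycobacterium tuberculosis (UniProt I6X8D2). Enzyme assay of the thioesterase domain of polyketide synthase 13; the read-out is not stated. Concentration: 30 µM. The record gives no direction; the compounds picked for IC50 retests had high values, so higher reads as stronger inhibition. Size under these conditions: about 67,000 compounds, about 300 of them at 50% or above in at least one test.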
Toxoplasma: 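Assay of Toxoplasma gondii numbers, read through their beta-galactosidase reporter with a colour substrate. Tested at 10 µM. The record gives no direction; the compounds picked for IC50 retests had high values, so higher reads as fewer parasites. Of about 67,000 compounds tested this way, about 260 (0.38%) reached 50% or more in at least one test.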
CoaBC: 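Enzyme assay of CoaBC with a phosphate dye (Biomol Green) read at 650 nm. Target: Coenzyme A biosynthesis protein CoaBC, Mycobacterium tuberculosis (UniProt P9WNZ1). Concentration: 30 µM. Higher reads as stronger inhibition, judged from the few compounds that gave an IC50. Most strong results did not repeat in a second test. About 67,000 compounds were tested under these conditions; 0.06% (about 40) showed 50% or more at least once.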
MtTrpRS: 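Tryptophan-tRNA ligase, Mycobacterium tuberculosis (UniProt P9WFT3). Enzyme assay of tryptophanyl-tRNA synthetase; the read-out is not stated. Tested at 10 µM. Direction is not recorded; retested compounds ran higher, which suggests that high means inhibition. Size under these conditions: about 65,000 compounds, about 64 of them at 50% or above in at least one test.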
LiHisRS: 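Histidine-tRNA ligase, Leishmania infantum (UniProt A4I591). Enzyme assay of histidyl-tRNA synthetase; the read-out is not stated. Tested at 30 µM. Higher reads as stronger inhibition (inferred: compounds with an IC50 in retests scored well above the rest). The assay is labelled LdHisRS but filed under L. infantum. Of about 69,000 compounds tested this way, about 410 (0.6%) reached 50% or more in at least one test.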
TcHisRS: 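Histidine-tRNA ligase, Trypanosoma cruzi CL Brener (UniProt Q4DA54). Enzyme assay of histidyl-tRNA synthetase; the read-out is not stated. Compounds at 30 µM. Direction is inferred from retests: higher values go with stronger inhibition. About 69,000 compounds were tested under these conditions; 0.045% (about 31) showed 50% or more at least once.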

The filed quantity is “Percent Effect” (%).
The record does not define 0% and 100%; most values in the screen are far below 50% and negative numbers occur (in some assays of this library far below -100).
Compounds were drawn at random from those tested, without regard to their results.

* Cc1cccc(C(=O)N2CCCN(Cc3cscn3)CC2)c1 : Pks13 thioesterase: -10.39%; Toxoplasma: 7.579%; CoaBC: 12.06%; MtTrpRS: -7.893%; LiHisRS: 6.838%; TcHisRS: 3.134%
* CCn1ccnc1CN1CCN(Cc2cnc(C)cn2)CC1C (centres unmarked) : Pks13 thioesterase: -2.965%; Toxoplasma: 16.6%; CoaBC: 3.299%; MtTrpRS: 0.581%; LiHisRS: 24.71%; TcHisRS: 3.139%
* Cc1n[nH]c(C2CN(C(=O)c3ccc4c(c3)COC4)CCO2)n1 (centres unmarked) : Pks13 thioesterase: 4.835%; Toxoplasma: -6.874%; CoaBC: -1.22%; MtTrpRS: -3.612%; LiHisRS: 3.2%; TcHisRS: 1.961%
* Cn1ccc2c(-c3cc(N)nc(N4CCOCC4)n3)ccnc21 : Pks13 thioesterase: 7.966%; Toxoplasma: 3.315%; CoaBC: 7.282%; MtTrpRS: -1.008%; LiHisRS: 19.05%; TcHisRS: 6.931%
* Cc1ncc2c(c1CNC(=O)C1(C)CCCCO1)CCNC2 (centres unmarked) : Pks13 thioesterase: -14.11%; Toxoplasma: 9.01%; CoaBC: 1.811%; MtTrpRS: 3.818%; LiHisRS: 20.51%; TcHisRS: -3.933%
* Cc1cc(C(F)(F)F)n2nc(C3CCCN3C3CCSCC3)cc2n1 (centres unmarked) : Pks13 thioesterase: -5.443%; CoaBC: -3.417%; MtTrpRS: -2.903%; LiHisRS: -20.29%; TcHisRS: 7.576%
* CC(=O)NCC1CCN(C(=O)c2c[nH]c3cc(Cl)ccc23)CC1 : Pks13 thioesterase: 3.714%; Toxoplasma: 1.25%; CoaBC: 4.28%; MtTrpRS: 1.709%; LiHisRS: 8.108%; TcHisRS: 8.333%
* Cc1cc(C(=O)N2C[C@H]3CC[C@@H]2CN(C(=O)c2ccncc2)C3)cs1 : Pks13 thioesterase: -6.637%; CoaBC: 7.066%; MtTrpRS: 1.952%; LiHisRS: 21.67%; TcHisRS: 0%
* O=C(NCCOc1ccccc1)c1ccc2c(c1)C(=O)NC2=O : Pks13 thioesterase: -7.899%; Toxoplasma: -1.488%; CoaBC: 0.2404%; MtTrpRS: 2.968%; LiHisRS: 0%; TcHisRS: -1.266%
* Cc1ccc(CN2C[C@@H]3[C@@H](C(=O)N4CCCC4)CCS(=O)(=O)[C@@H]3C2)cc1 : Pks13 thioesterase: -24.39%; CoaBC: 1.463%; MtTrpRS: 1.65%; LiHisRS: 12.61%; TcHisRS: -7.843%
* Cn1ncc2c(N3CCC(F)(F)CC3)nc(-c3ccncc3)nc21 : Pks13 thioesterase: -37.99%; Toxoplasma: -13.85%; CoaBC: 0.7663%; MtTrpRS: -1.978%; LiHisRS: 23.38%; TcHisRS: -2.424%
* COc1ncccc1CN1CC[C@]2(C[C@@H](OCc3ccccn3)CO2)C1.O=C(O)C(F)(F)F.O=C(O)C(F)(F)F.O=C(O)C(F)(F)F : Toxoplasma: -6.616%
* COc1ccc(-c2c[nH]c([C@@H]3COCCN3)n2)cc1 : Pks13 thioesterase: 5.245%; Toxoplasma: -2.256%; CoaBC: -1.768%; MtTrpRS: -4.043%; LiHisRS: -5.405%; TcHisRS: 3.483%

For reference, 2 entries once more:

{"compound": "CC(=O)NCC1CCN(C(=O)c2c[nH]c3cc(Cl)ccc23)CC1", "Pks13 thioesterase": 3.714, "Toxoplasma": 1.25, "CoaBC": 4.28, "MtTrpRS": 1.709, "LiHisRS": 8.108, "TcHisRS": 8.333}
{"compound": "Cc1cc(C(F)(F)F)n2nc(C3CCCN3C3CCSCC3)cc2n1", "stereo": "centres unmarked", "Pks13 thioesterase": -5.443, "CoaBC": -3.417, "MtTrpRS": -2.903, "LiHisRS": -20.29, "TcHisRS": 7.576}

Data taken from ChEMBL document CHEMBL3988442, “University of Dundee, Small-Polar-MMV Screening Library” (2021).